Source: PubChem BioAssay AID2417 (National Center for Advancing Translational Sciences (NCATS), 2010)
Hit rate of the full screen: of about 140,000 compounds, about 4,300 (3.1%) were called active. This list was built around the results that the source calls inconclusive (neither active nor inactive); the mix of calls is not that of the screen.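 How the source made its calls: active means readout at or below -70, meaning at least 70% loss of cells showing the perinucleolar compartment, a nuclear body marking cancer cells; inconclusive means readout between -30 and a set limit; inactive means the rest.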

assay: High Content Assay for Compounds that inhibit the Assembly of the Perinucleolar Compartment; settings: PC3M PTB-GFP, PNC prevalence imaging, 16 h; at 10 µM; hits give low values;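 further: plate controls were DMSO wells for no effect and camptothecin positive control wells for full effect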
Method in brief: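 PC3M cells stably expressing PTB-GFP, 750–1000 cells/well, treated 16 h at 37 °C with compound (23 nl of library stock), in duplicate. After paraformaldehyde fixation and Hoechst stain, imaged at 20x; PNC prevalence scored by image analysis.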

| Compound | activity change (PNC), negative = inhibition |
| --- | --- |
| CCC(=O)N(CC)C1=C(O)c2ccccc2C(=O)C1=O | inconclusive: -33.8% |
| Cc1cc(Cl)c(S(=O)(=O)Nc2cccc(O)c2)cc1OCC(N)=O | inactive: 3.24% |
| CCCOc1ccc([N+](=O)[O-])c(N)c1 | inactive: 31.9% |
| CN(C)c1ccc(-c2nn3c(-c4ccccc4Cl)nnc3s2)cc1 | inconclusive: -59% |
| Cc1[nH]c2ccc(Br)cc2c(=O)c1CN1CCOCC1 | inconclusive: -71.7% |
| Cc1ccc(NC(=O)NC(=O)N(C2CCCCC2)S(=O)(=O)c2ccccc2)cc1 | inactive: 8.69% |
| Cc1cccc2cc(C(c3nnnn3CC3CCCO3)N3CCc4ccccc4C3)c(=O)[nH]c12 (configuration not stated) | inactive: 22.3% |
| COc1cc(C(=O)NCCc2cn3ccccc3n2)cc(OC)c1OC | inactive: -4.25% |
| Cc1ccc(/C=c2\sc3n(c2=O)CN(c2ccc(Br)cc2)CN=3)o1 | inactive: 15.7% |
| O=C(Nn1c(C2CCCCC2)nc2ccccc2c1=O)c1cc(Cl)ccc1[N+](=O)[O-] | inconclusive: -60.2% |
| Cn1nc(C(=O)NC2CCCCC2)c2ccccc2c1=O | inconclusive: -41.5% |
| COc1ccccc1C(=O)NN=C1CCN(Cc2ccccc2)CC1 | inconclusive: -64.9% |
| c1ccc(CN2CCN(C(c3ccccc3)c3nnnn3Cc3ccccc3)CC2)cc1 (configuration not stated) | inactive: 25% |
| O=C(Nc1ccccc1)c1ccc(-c2ccccc2Cl)o1 | active: -92.3% |
| COc1ccc(/C=C(/NC(=O)c2ccccc2)c2nc3ccc(Cl)cc3[nH]2)cc1OC | inactive: 5.75% |
| Cc1ccc(C(=O)COC(=O)CCC(=O)NC2CCCCC2)cc1C | inconclusive: -33.5% |
| COc1cccc(C(=O)Oc2cc(-c3ccccc3)no2)c1 | inconclusive: -78.9% |
| O=C(NCCCN1CCOCC1)C1CCC(=O)N1CCc1ccccc1 (configuration not stated) | inactive: -3.78% |
| COc1ccc(NS(=O)(=O)c2ccc(OCC(=O)N3CCOCC3)cc2)cc1 | inconclusive: -41.2% |
| CC(C)CNC(=S)NC(=O)c1ccc(Cl)cc1 | inconclusive: -57.9% |
| O=C(Nc1ccc2c(c1)OCCO2)c1cccs1 | inconclusive: -63.2% |
| O=C(N/N=C/c1ccsc1)c1cc(-c2cccs2)nc2ccccc12 | inconclusive: -32.1% |
| Cc1ccccc1NC(=O)c1cnc2ccccn2c1=O | inconclusive: -56.7% |

In the list so far, these contain a halogen:

| Compound | activity change (PNC), negative = inhibition |
| --- | --- |
| Cc1cc(Cl)c(S(=O)(=O)Nc2cccc(O)c2)cc1OCC(N)=O | inactive: 3.24% |
| CN(C)c1ccc(-c2nn3c(-c4ccccc4Cl)nnc3s2)cc1 | inconclusive: -59% |
| Cc1[nH]c2ccc(Br)cc2c(=O)c1CN1CCOCC1 | inconclusive: -71.7% |
| Cc1ccc(/C=c2\sc3n(c2=O)CN(c2ccc(Br)cc2)CN=3)o1 | inactive: 15.7% |
| O=C(Nn1c(C2CCCCC2)nc2ccccc2c1=O)c1cc(Cl)ccc1[N+](=O)[O-] | inconclusive: -60.2% |
| O=C(Nc1ccccc1)c1ccc(-c2ccccc2Cl)o1 | active: -92.3% |
| COc1ccc(/C=C(/NC(=O)c2ccccc2)c2nc3ccc(Cl)cc3[nH]2)cc1OC | inactive: 5.75% |
| CC(C)CNC(=S)NC(=O)c1ccc(Cl)cc1 | inconclusive: -57.9% |

More structures.

| Compound | activity change (PNC), negative = inhibition |
| --- | --- |
| CCOc1ccc(S(=O)(=O)N(C)c2ccc(OCC(=O)Nc3nc(-c4cc(OC)ccc4OC)cs3)cc2)cc1 | inconclusive: -56.1% |
| CCS(=O)(=O)Nc1ccc(-c2nnc(SCC(=O)c3cccc(OC)c3)o2)cc1 | inconclusive: -56.2% |
| O=C(NCC1CCCO1)C1CCN(C(=O)c2ccc(Cl)cc2)CC1 (configuration not stated) | inactive: -27.7% |
| CC(C)NC(=O)NC(=O)COC(=O)c1ccccc1F | active: -115% |
| CCc1cc(OCCCCNCc2ccccc2)ccc1Cl | inconclusive: -39.6% |
| COc1ccc(N2C(=O)CCC(C(=O)NCc3ccccn3)C2c2ccc(OC)c(OC)c2)cc1 (configuration not stated) | inconclusive: -32.3% |
| CCOC(=O)c1c(/N=C/N(C)C)sc(/C=N/Nc2ccccc2)c1-c1ccccc1 | inconclusive: -56.3% |
| CCOC(=O)Nc1sc2c(c1C#N)CCCC2 | inactive: -28.2% |
| O=c1cc(O)c(-c2ccccc2Cl)c(Cl)[nH]1 | inconclusive: -48.3% |
| COC(=O)c1cn(C(=O)c2cccs2)c2ccccc12 | inconclusive: -44.1% |
| Cc1ccc(NC(=O)C(NC2CCCc3ccccc32)c2ccccc2)cc1Cl (configuration not stated) | inactive: 1.31% |
| CCCc1sc(N)nc1-c1ccc(Cl)cc1 | inconclusive: -43.9% |
| O=C(O)C1CC(=O)N(Cc2ccc3c(c2)OCO3)C1 (configuration not stated) | inactive: 17.8% |
| CCOc1ccc2[nH]c(=O)c(CN(Cc3nnnn3CCc3ccccc3)CC3CCCO3)cc2c1 (configuration not stated) | active: -100% |
| Oc1[nH]c2ccccc2c1N=Nc1ccc(F)cc1 | inconclusive: -35.4% |
| CS(=O)(=O)N1CCCC(C(=O)N2CCOCC2)C1 (configuration not stated) | inconclusive: -73.9% |
| COc1ccccc1OCCOc1ccccc1/C=N/n1cnnc1 | inconclusive: -64.8% |
| CC1(C)CC(NC(=O)C2CCCCC2C(=O)O)CC(C)(C)N1 (configuration not stated) | active: -98.7% |
| CN(C)S(=O)(=O)c1cccc(NC(=O)COC(=O)/C=C/c2ccco2)c1 | inactive: 27.4% |
| CCCCCCC(=O)N/N=C1\CCCc2ccccc21 | inconclusive: -32.8% |
| CCOC(=O)C1C(=O)CC(C)(O)C(C(=O)OCC)C1c1ccc(F)cc1 (configuration not stated) | inactive: -9.68% |
| Cc1ccnc(NS(=O)(=O)c2ccc(NS(=O)(=O)c3ccccc3)cc2)n1 | active: -100% |
| CN(CC(CC(=O)Nc1nncs1)c1ccccc1)S(=O)(=O)c1ccccc1 (configuration not stated) | inactive: -19.9% |

| Compound | activity change (PNC), negative = inhibition |
| --- | --- |
| CCCn1c(SCC(=O)Nc2ccccc2CC)nnc1C(C)C | inconclusive: -63.9% |
| O=C(NC(c1ccccc1)c1ccccc1)C1CCCN(S(=O)(=O)c2cnc[nH]2)C1 (configuration not stated) | inactive: 20.4% |
| NC(=O)c1ccc(-n2nnnc2SCc2ccc(F)cc2)cc1 | inactive: -26.5% |
| COc1ccc(CCNc2cc(=O)[nH]c(N)n2)cc1 | inconclusive: -48.9% |
| O=c1[nH]c(NCc2ccccc2)nc2c1CCCC2 | inactive: -23.2% |
| O=S(=O)(c1ccc2c(c1)nc(COc1ccc(Cl)cc1)n2CC1CCCO1)N1CCOCC1 (configuration not stated) | inconclusive: -35.5% |
| CC(C)(C)NS(=O)(=O)c1ccc(OCC(=O)NCCC2=CCCCC2)cc1 | inconclusive: -53.5% |
| C=CCn1c(SCc2nc3ccccc3[nH]2)nnc1-c1cccc(OC)c1 | inactive: 14.9% |
| O=C(CN1CCN(CC(=O)c2ccc(F)cc2)CC1)Nc1ccccc1Cl | inactive: -7.08% |
| CC(C)Oc1cccc(C(=O)NC(=S)Nc2cccc(NC(=O)c3ccccc3Cl)c2)c1 | inactive: -0.293% |
| CCOC(=O)N1CCN(c2ccc([N+](=O)[O-])cc2)CC1 | inconclusive: -59% |
| N#Cc1ccsc1NC(=O)CN1CCCCCC1 | inconclusive: -48.3% |
| CC(C)OC(=O)c1c(NC(=O)c2cccs2)sc2c1CCCC2 | inactive: 39.7% |
| Cc1nc(N2CCOCC2)[nH]c(=O)c1CCC(C)C | inconclusive: -34.9% |
| CC(=O)CC(C)(C)S(=O)(=O)c1ccc(Oc2ccc(S(=O)(=O)C(C)(C)CC(C)=O)cc2)cc1 | inactive: 155% |
| COc1ccc(C(=O)NCc2ccc(Cl)c(Cl)c2)cc1OC | inconclusive: -30.6% |
| CCN(c1cccc(C)c1)c1nc2ccsc2c(=O)s1 | inactive: 52.9% |
| Nc1nc(CN2CCN(Cc3ccc4c(c3)OCO4)CC2)nc(Nc2ccccc2)n1 | active: -129% |
| CCCCCn1c(=O)[nH]c2cc(C(=O)N3CCN(Cc4ccc5c(c4)OCO5)CC3)ccc2c1=O | inactive: 19.1% |
| CN(Cc1nc2ccccc2c(=O)[nH]1)Cc1cc(=O)oc2ccc3ccccc3c12 | inconclusive: -39.5% |
| CCCc1nnc(NC(=O)Nc2ccccc2OC)s1 | inconclusive: -35.2% |
| O=C(CSc1nnc(-c2ccccc2O)o1)Oc1ccc(OCc2ccccc2)cc1 | inconclusive: -39.5% |
| N=C1c2ccccc2CN1NC(=O)c1cccc(S(=O)(=O)N2CCCC2)c1 | inactive: 1.75% |

| Compound | activity change (PNC), negative = inhibition |
| --- | --- |
| O=C(c1ccccn1)N1CCN(C(=O)c2ccccn2)CC1 | inactive: 23.6% |
| O=C1CSC(c2cccnc2)N1c1ccc(F)cc1 (configuration not stated) | inactive: 21.1% |
| CCOC(=O)Cc1csc(NC(=O)NC2(C(F)(F)F)Oc3ccc(Cl)cc3O2)n1 (configuration not stated) | inconclusive: -43.8% |
| COc1ccc(C(=O)C(C)Oc2cccc(NC(=O)c3cccc([N+](=O)[O-])c3)c2)cc1 (configuration not stated) | inactive: -1.02% |
| Cc1ccc(SCCCCN2CCNCC2)cc1 | inactive: 16.6% |
| CCOC(=O)N1CCN(C(=O)c2ccc(NC(=O)CC)cc2)CC1 | inactive: 2.11% |
| Cc1[nH]c2ccccc2c1/C=N/NC(=O)C1CC1(c1ccccc1)c1ccccc1 (configuration not stated) | active: -110% |
| CC(C)C(=O)Nc1sc2c(c1-c1nc3ccccc3[nH]1)CCCC2 | inconclusive: -35.4% |
| CCCNC(=S)N1CCC(c2nc3cc(C)c(C)cc3[nH]2)CC1 | inactive: 49.3% |
| Cc1ccc(-c2n[nH]c(=O)c3ccccc23)cc1S(=O)(=O)NCCO | inconclusive: -31.5% |
| CN1CCN(c2ccc(Cl)cc2NS(=O)(=O)c2ccccc2Cl)CC1 | inactive: 20.8% |
| CCOC(=O)c1[nH]c(C)c(C(=O)Nc2ccc(C)c(F)c2)c1C | inconclusive: -62.6% |
| O=C(CSc1nc2ccccc2s1)Nn1cnnc1 | inconclusive: -50.3% |
| Brc1ccc(CSc2ncnc3nc[nH]c23)cc1 | inconclusive: -57.2% |
| COc1ccc2[nH]c(=O)c(CN(CCO)S(=O)(=O)c3c(C)ccc4nsnc34)cc2c1 | inconclusive: -49.6% |
| Cc1cc(NC(=O)CSc2nnc(CNc3ccc(F)cc3)n2C2CCCCC2)no1 | inconclusive: -36.2% |
| COCCN(C(=O)C1CC1)c1nnc(-c2cccc(C)c2)s1 | inactive: -29.2% |
| COc1ccc(NC(=O)C2CCCO2)cc1Cl (configuration not stated) | inactive: 17.6% |
| CCOC(=O)C1=C(Cc2ccc(F)cc2)C(=O)c2ccccc2C1=O | inconclusive: -60.7% |
| CC(=O)Nc1ccc(SCC(=O)Nc2cc(C(C)(C)C)nn2-c2ccccc2)cc1 | active: -115% |
| COC(=O)CS(=O)(=O)c1cc(Br)cc2c1N(C(C)=O)CC2 | inconclusive: -45.6% |
| CC(CN1CCOCC1)OC(=O)C(c1ccccc1)c1ccccc1 (configuration not stated) | inconclusive: -31.1% |
| COc1ccc(-c2nnc(SCC(=O)N3CCC(Cc4ccccc4)CC3)o2)cc1OC | inconclusive: -40.6% |
